{"source": "PubChem BioAssay AID2685", "about": "(National Center for Advancing Translational Sciences (NCATS), 2010)", "note": "Screen size: about 320,000 compounds; about 2,100 (0.66%) were called active. The inconclusive results got no clear call from the source; some entries with a clear call stand among them for comparison. The call rests on the fitted dose curve; in most records, active means well fitted inhibition curve with a large enough effect in the signal ratio, with a control signal flat (not every such curve was filed as active); inconclusive means small, poorly fitted or top-dose-only effect, or effect the other way, or a change in a side signal; inactive means flat fitted curve, though single readings scatter; the % refers to the signal ratio. Where the call is inconclusive, the potency comes from a doubtful curve fit. On the % scale 0 is the no-effect control and ±100 the full control effect; potency means the concentration at half of the fitted maximal effect.", "data": [{"assay": "qHTS Assay for Lipid Storage Modulators in Drosophila S3 Cells", "conditions": "BODIPY lipid droplet fluorescence, 18-24 h, cells fed with added oleic acid; lipid storage change, negative = inhibition: at 46.1 µM (top of the series) unless noted", "in_short": "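Laser-scanning cytometry quantifies lipid droplet accumulation (500–530 nm total intensity; droplet/cell object ratio) in oleic acid-fed (400 uM added) Drosophila S3 cells treated with a concentration series. 20 uM Triacsin C defined 100% inhibition.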", "values": [{"compound": "N#CCC(=O)Nc1ccc(C(=O)NCC2(N3CCOCC3)CCCCC2)cc1", "Potency": "inconclusive: 3.26 µM [activator, full curve, poor fit]"}, {"compound": "CCOC(=O)N1CCN=C1SCc1ccc(C(F)(F)F)cc1", "lipid storage change, negative = inhibition": "inconclusive: 7.95%"}, {"compound": "COc1ccc(NC(=O)OCCN2CCN(Cc3ccccc3)CCC2=O)cc1", "lipid storage change, negative = inhibition": "inconclusive: 1.98%"}, {"compound": "C=CCn1c(N)c(C(=O)OCCC)c2nc3ccccc3nc21", "Potency": "inconclusive: 0.731 µM [activator, single point]"}, {"compound": "CC1CCN(C2CC(=O)N(c3ccc(Br)cc3Br)C2=O)CC1", "note": "(stereo not given)", "lipid storage change, negative = inhibition": "inconclusive: 14.4%"}, {"compound": "COc1ccc(N(C(=O)CNC(=O)c2cccs2)C(C(=O)NC2CCCC2)c2cccnc2)cc1", "note": "(stereo not given)", "lipid storage change, negative = inhibition": "inactive: -7.37%"}, {"compound": "Cc1cccc(NC(=O)CCC(=O)N/N=C/c2ccncc2)c1", "lipid storage change, negative = inhibition": "inconclusive: -31.8%"}, {"compound": "Cc1cccc(C(=O)Nc2nnc(SCC(=O)NC3CC3)s2)c1", "Potency": "inconclusive: 0.731 µM [activator, full curve, poor fit]"}, {"compound": "O=C(CN(C(=O)c1csnn1)c1cccc(C(F)(F)F)c1)NCc1ccc(F)cc1", "Potency": "inconclusive: 23.1 µM [falling, partial curve, poor fit]"}, {"compound": "CCOc1cc(/C=C/C(=O)c2ccc(O)cc2)ccc1OCC(=O)N(C)C", "Potency": "inconclusive: 23.1 µM [falling, single point]"}, {"compound": "CCC(C)(C)NC(=O)C1CCC(CNS(=O)(=O)c2cccc3nsnc23)CC1", "note": "(stereo not given)", "lipid storage change, negative = inhibition": "inconclusive: -40.5%"}, {"compound": "CCn1c(COc2ccccc2C)nnc1SCC(=O)Nc1ccc2c(c1)OCCO2", "Potency": "inconclusive: 6.51 µM [activator, single point]"}, {"compound": "O=C(COc1ccccc1)Nc1ccccc1NS(=O)(=O)c1cccs1", "lipid storage change, negative = inhibition": "inconclusive: 30.1%"}, {"compound": "Cc1ccc(NC(=O)C(C)OC(=O)CCC2CCCCC2)cc1", "note": "(stereo not given)", "lipid storage change, negative = inhibition": "inconclusive"}, {"compound": "O=C(O)C1CCN(c2ccc(S(=O)(=O)N3CCC(C(=O)O)CC3)cc2[N+](=O)[O-])CC1", "lipid storage change, negative = inhibition": "inconclusive: -27.8%"}, {"compound": "CC1(c2ccc(Cl)cc2Cl)NC(=O)N(CC(=O)N2CCN(C(=O)c3ccco3)CC2)C1=O", "note": "(stereo not given)", "Potency": "inconclusive: 0.731 µM [falling, full curve, poor fit]"}, {"compound": "Cc1ccc2oc(-c3ccccc3C(=O)O)cc(=O)c2c1", "lipid storage change, negative = inhibition": "inconclusive: -16.7%"}, {"compound": "CCN(C(=O)c1cc2ccccc2oc1=O)c1ccccc1", "lipid storage change, negative = inhibition": "inconclusive: -15.2%"}, {"compound": "Cc1ccc2c(c1)C1CN(C)CCC1N2C(=S)Nc1ccc(Cl)cc1Cl", "note": "(stereo not given)", "Potency": "inconclusive: 20.6 µM [activator, single point]"}, {"compound": "Cc1nn(-c2ccccc2)c(Cl)c1C(=O)NCCN(C)C", "lipid storage change, negative = inhibition": "inconclusive: -12.3%"}, {"compound": "CCOc1ccc(NC(=O)c2cc3n(n2)C(C(F)(F)F)CC(c2ccco2)N3)cc1", "note": "(stereo not given)", "lipid storage change, negative = inhibition": "inconclusive: 16.2%"}, {"compound": "NC(=O)CSc1nnc(COc2cccc3ccccc23)o1", "Potency": "inconclusive: 16.4 µM [activator, partial curve, poor fit]"}, {"compound": "O=C(CN1CCC(n2nnc3cc(F)ccc32)CC1)N1CCc2ccccc2C1", "Potency": "inconclusive: 6.51 µM [activator, single point]"}, {"compound": "O=C(Nc1cccc2c1CCCC2)c1ccccc1Br", "lipid storage change, negative = inhibition": "inconclusive: 58%"}, {"compound": "O=C(CN1C2=NCCN2c2ccccc21)c1ccco1", "Potency": "inconclusive: 29.1 µM [cytotoxic, single point]"}, {"compound": "O=C(CN1C(=O)NC2(CCCc3ccccc32)C1=O)c1ccc(F)cc1", "note": "(stereo not given)", "Potency": "inconclusive: 29.1 µM [falling, single point]"}, {"compound": "CC1=C(C(=O)O)N2C(=O)C(NC(=O)c3c(F)cccc3F)C2SC1", "note": "(stereo not given)", "Potency": "inconclusive: 14.6 µM [activator, partial curve, poor fit]"}, {"compound": "CCc1noc(C)c1C(=O)NNC(=O)COc1cc(C)ccc1C", "Potency": "inconclusive: 4.11 µM [activator, single point]"}, {"compound": "CCN(Cc1ccccc1)C(=O)CCS(=O)(=O)c1ccc2c(c1)n(C)c(=O)c(=O)n2C", "lipid storage change, negative = inhibition": "inconclusive: -20.7%"}, {"compound": "COc1ccc(-c2noc(N3CCC(C(=O)NC(C)c4ccccc4)CC3)n2)cc1", "note": "(stereo not given)", "lipid storage change, negative = inhibition": "inconclusive: 27.5%"}, {"compound": "CCc1cc2c(NCC(=O)O)ncnc2s1", "Potency": "inconclusive: 20.6 µM [falling, single point]"}, {"compound": "COc1ccc(N(CC(=O)NC2CCCC2)C(=O)Cn2nnc(-c3ccc(F)cc3)n2)cc1OC", "lipid storage change, negative = inhibition": "inconclusive: -35.6%"}, {"compound": "O=C(COc1coc(CN2CCN(Cc3ccccc3)CC2)cc1=O)Nc1ccccc1", "lipid storage change, negative = inhibition": "inconclusive: 34.9%"}, {"compound": "Cc1ccc(/C=N/NC(=O)C(O)c2ccccc2)o1", "note": "(stereo not given)", "lipid storage change, negative = inhibition": "inconclusive: 1.35%"}, {"compound": "Cc1cc(C(=O)COC(=O)C2CC2)c(C)n1-c1ccc(F)cc1", "lipid storage change, negative = inhibition": "inconclusive: 42.9%"}, {"compound": "O=C(NCC(F)(F)F)c1nn(Cc2ccccc2)c(=O)c2ccccc12", "lipid storage change, negative = inhibition": "inconclusive: 1.95%"}, {"compound": "Cc1ccc(NCc2nnc(SCC(=O)OC3CCCCC3)o2)c(C)c1", "Potency": "inconclusive: 0.103 µM [activator, full curve, poor fit]"}, {"compound": "COc1ccc(S(=O)(=O)N(CC(=O)NCc2ccco2)c2ccc(C)cc2)cc1OC", "Potency": "inconclusive: 3.66 µM [falling, partial curve, poor fit]"}, {"compound": "Cc1noc(NS(=O)(=O)c2ccc(N/C=C/C(=O)c3cccnc3)cc2)c1C", "lipid storage change, negative = inhibition": "inconclusive: 25%"}, {"compound": "Cn1nc(-c2ccccc2)cc1NC(=O)c1ccc(Cl)cc1", "lipid storage change, negative = inhibition": "inconclusive: 5.63%"}, {"compound": "C=CCN1C(=NC(=O)CCC(=O)O)SC2CS(=O)(=O)CC21", "note": "(stereo not given)", "lipid storage change, negative = inhibition": "inconclusive: -2.21%"}, {"compound": "Cc1nn(S(=O)(=O)N2CCOCC2)c(C)c1Br", "lipid storage change, negative = inhibition": "inactive: -9.45%"}, {"compound": "N#Cc1nc(-c2ccc(OCc3ccc(Cl)cc3)cc2)oc1N1CCOCC1", "lipid storage change, negative = inhibition": "inconclusive: -39.5%"}, {"compound": "COC(=O)c1ccc(/C=C/C(=O)O)cc1", "lipid storage change, negative = inhibition": "inactive: 3.31%"}, {"compound": "Cc1[nH][nH]c(=O)c1C=Nc1ccc(C(F)(F)F)cc1", "lipid storage change, negative = inhibition": "inconclusive: -0.633%"}, {"compound": "CCCCN(C(=O)C1CCCO1)c1c(N)n(CC(C)C)c(=O)[nH]c1=O", "note": "(stereo not given)", "lipid storage change, negative = inhibition": "inconclusive"}, {"compound": "CC(C)c1ccc(NC2CCCN(C(=O)CCc3cnn(C)c3)C2)cc1", "note": "(stereo not given)", "Potency": "inconclusive: 8.2 µM [activator, partial curve]"}, {"compound": "O=C(Nc1ccccc1N1CCCCC1)c1ccc(OC(F)F)cc1", "Potency": "inconclusive: 29.1 µM [falling, single point]"}, {"compound": "CCCCn1c(SCn2nnc3ccccc3c2=O)nc2cc(S(N)(=O)=O)ccc21", "Potency": "inconclusive: 0.13 µM [rising, full curve, poor fit]"}, {"compound": "O=C(COC(=O)Cc1ccc(Br)cc1)NC12CC3CC(CC(C3)C1)C2", "Potency": "inconclusive: 1.3 µM [falling, full curve]"}, {"compound": "Cc1nnc(NC(=O)c2cc(S(=O)(=O)N(C)C)ccc2N2CCCC2)s1", "lipid storage change, negative = inhibition": "inconclusive: -19.9%"}, {"compound": "Cc1cc(C)n(-c2ccc(C(=O)Nc3cccc([N+](=O)[O-])c3)cc2)n1", "lipid storage change, negative = inhibition": "inconclusive: 6.9%"}, {"compound": "CCN1CCN(CC2CC3C=CC2C3)CC1", "note": "(stereo not given)", "lipid storage change, negative = inhibition": "inconclusive: -0.484%"}, {"compound": "Cc1ncc(N=Nc2ccccc2)c(-c2ccccc2)n1", "Potency": "inconclusive: 29.1 µM [falling, single point]"}, {"compound": "Cc1cc(C(=O)CCC(=O)NNC(=O)c2ccccc2O)c(C)s1", "lipid storage change, negative = inhibition": "inconclusive: 13.5%"}, {"compound": "O=C(CN1C(=O)c2ccccc2S1(=O)=O)NCCSCc1cccc(Cl)c1", "lipid storage change, negative = inhibition": "inconclusive: 71.1%"}, {"compound": "CN(c1ccccc1)S(=O)(=O)c1cccc(C(=O)NCc2ccccc2)c1", "lipid storage change, negative = inhibition": "inconclusive: 23.9%"}, {"compound": "O=C(NC1CCCCC1NC(=O)c1cccs1)c1cccs1", "note": "(stereo not given)", "lipid storage change, negative = inhibition": "inconclusive: -109%"}, {"compound": "CCOC(=O)CCCc1ccc(/C(C)=N/NC(=S)NC)cc1", "Potency": "inconclusive: 3.26 µM [falling, full curve]"}, {"compound": "CC(C)(C)c1ccc(OCC(=O)NNC(=O)c2cccnc2)cc1", "Potency": "inconclusive: 6.51 µM [falling, single point]"}, {"compound": "CCc1cccc(NC(=O)c2cccc3c2C(=O)N(CC2CCCO2)C3)c1", "note": "(stereo not given)", "Potency": "inconclusive: 16.4 µM [falling, single point]"}, {"compound": "COc1ccc(-c2nn(-c3ccccc3)cc2C(=O)Nc2ccc(C(=O)O)cc2)cc1OC", "Potency": "inconclusive: 23.1 µM [falling, single point]"}, {"compound": "O=C(NCC1CCS(=O)(=O)C1)Oc1ccccc1", "note": "(stereo not given)", "lipid storage change, negative = inhibition": "inconclusive: -0.957%"}, {"compound": "O=C(NC(=S)NCCCN1CCOCC1)c1ccc(Br)cc1", "lipid storage change, negative = inhibition": "inconclusive: -19.9%"}, {"compound": "COc1cccc(/C=N/NC(=O)c2cc3c(OC)c(OC)ccc3[nH]2)c1OC", "Potency": "inconclusive: 1.03 µM [activator, full curve]"}, {"compound": "Cc1ccccc1OCC(=O)N/N=C/c1cccc2cccnc12", "lipid storage change, negative = inhibition": "inconclusive: -68.7%"}, {"compound": "Cc1sc2c(=O)n3c(nc2c1C(=O)NCCCN1CCOCC1)CCCCC3", "lipid storage change, negative = inhibition": "inconclusive: -0.686% [at 9.22 µM]"}, {"compound": "COc1ccc(C(=O)NC(=S)Nc2ccc3oc(=O)ccc3c2)cc1", "lipid storage change, negative = inhibition": "inconclusive: -32.7%"}, {"compound": "COc1ccc(Br)cc1S(=O)(=O)N(CC(=O)N1CCN(C)CC1)c1ccccc1", "Potency": "inconclusive: 14.6 µM [falling, single point]"}, {"compound": "COc1ccccc1NS(=O)(=O)c1cccc(NC(=O)c2sc3ccccc3c2Cl)c1", "lipid storage change, negative = inhibition": "inconclusive: -37.8% [cytotoxic] [at 0.00295 µM]"}, {"compound": "NC(=O)c1nn(CC(=O)Nc2cccc(S(=O)(=O)N3CCCC3)c2)c(=O)c2ccccc12", "lipid storage change, negative = inhibition": "inconclusive: 12.6%"}, {"compound": "Cc1cccc(N(CC(=O)O)CC(=O)O)c1", "lipid storage change, negative = inhibition": "inconclusive: 16.9%"}, {"compound": "CN(C)C(=O)C[n+]1ccc(/C=N/O)cc1", "lipid storage change, negative = inhibition": "inconclusive: -30.6%"}, {"compound": "COc1cc(/C=C/C(=O)Nc2ccncc2)cc(OC)c1OC", "Potency": "inconclusive: 1.16 µM [activator, full curve]"}, {"compound": "CSc1nc(N2CCCC2)c2c(c1C#N)CC(C)(C)OC2", "lipid storage change, negative = inhibition": "inconclusive: 182%"}]}]}
